The entries are a selection whose mix differs from that of the whole data set. The calls were merged from several studies; some rest on single wells. This is one part of the list.
Tests used:
Details in all cases: stereoisomer not certain
[1] = test system: T1, 
T1 sequence (whole entry): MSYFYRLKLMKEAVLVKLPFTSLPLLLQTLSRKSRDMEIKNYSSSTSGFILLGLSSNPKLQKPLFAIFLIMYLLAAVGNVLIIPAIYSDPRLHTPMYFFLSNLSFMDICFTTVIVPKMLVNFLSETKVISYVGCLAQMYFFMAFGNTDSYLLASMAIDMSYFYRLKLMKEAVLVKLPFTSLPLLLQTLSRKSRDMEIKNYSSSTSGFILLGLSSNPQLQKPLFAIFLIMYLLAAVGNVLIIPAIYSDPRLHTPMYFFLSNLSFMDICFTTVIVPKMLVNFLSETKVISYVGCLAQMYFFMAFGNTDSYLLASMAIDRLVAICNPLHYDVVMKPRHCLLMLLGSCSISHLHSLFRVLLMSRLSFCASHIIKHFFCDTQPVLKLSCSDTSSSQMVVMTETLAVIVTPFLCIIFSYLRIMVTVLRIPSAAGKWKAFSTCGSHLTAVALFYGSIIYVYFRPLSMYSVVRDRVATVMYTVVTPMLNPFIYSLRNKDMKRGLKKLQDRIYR
In short: (§1)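 Values were gathered from published papers (main text and supplementary material), with extra details requested from the original authors when needed, and checked for typos and inconsistencies. Each receptor–molecule pair is called responsive (active) if the original authors judged the measured signal statistically different from baseline, and non-responsive (inactive) otherwise. Assay methods varied by source, often transient mammalian cell-line luciferase assays. Recorded details include cell line, G-protein, co-transfected protein and tags.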

O1020 = test system: T2, O1020
T2 sequence (whole entry): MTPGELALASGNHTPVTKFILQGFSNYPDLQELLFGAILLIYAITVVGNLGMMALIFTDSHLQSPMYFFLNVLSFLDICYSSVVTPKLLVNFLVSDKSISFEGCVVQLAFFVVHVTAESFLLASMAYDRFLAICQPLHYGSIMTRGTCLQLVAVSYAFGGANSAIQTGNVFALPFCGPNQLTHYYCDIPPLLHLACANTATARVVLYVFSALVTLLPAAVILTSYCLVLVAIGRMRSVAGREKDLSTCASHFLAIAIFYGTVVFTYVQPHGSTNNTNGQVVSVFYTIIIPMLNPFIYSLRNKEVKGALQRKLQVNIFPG
In short: as §1

O1052 = test system: T3, O1052
T3 sequence (whole entry): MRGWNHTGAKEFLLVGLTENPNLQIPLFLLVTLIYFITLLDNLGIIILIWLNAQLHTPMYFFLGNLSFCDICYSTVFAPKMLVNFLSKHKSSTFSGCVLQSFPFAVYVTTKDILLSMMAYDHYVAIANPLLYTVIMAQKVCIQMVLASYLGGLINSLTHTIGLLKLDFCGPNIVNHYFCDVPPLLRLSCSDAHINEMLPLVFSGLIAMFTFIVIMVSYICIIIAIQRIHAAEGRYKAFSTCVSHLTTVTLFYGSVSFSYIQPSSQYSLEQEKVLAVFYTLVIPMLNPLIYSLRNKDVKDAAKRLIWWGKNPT
In short: as §1

O10A2 = test system: T4, O10A2
T4 sequence (whole entry): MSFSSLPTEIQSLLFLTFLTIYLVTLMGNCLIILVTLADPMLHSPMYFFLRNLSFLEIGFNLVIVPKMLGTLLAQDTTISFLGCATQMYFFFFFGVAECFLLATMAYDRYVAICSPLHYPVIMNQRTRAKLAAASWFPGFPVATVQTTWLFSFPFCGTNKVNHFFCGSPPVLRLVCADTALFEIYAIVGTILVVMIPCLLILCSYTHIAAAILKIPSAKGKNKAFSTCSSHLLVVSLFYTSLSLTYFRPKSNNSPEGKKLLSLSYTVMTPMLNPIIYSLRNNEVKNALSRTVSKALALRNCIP
In short: as §1

O10A4 = test system: T5, O10A4
T5 sequence (whole entry): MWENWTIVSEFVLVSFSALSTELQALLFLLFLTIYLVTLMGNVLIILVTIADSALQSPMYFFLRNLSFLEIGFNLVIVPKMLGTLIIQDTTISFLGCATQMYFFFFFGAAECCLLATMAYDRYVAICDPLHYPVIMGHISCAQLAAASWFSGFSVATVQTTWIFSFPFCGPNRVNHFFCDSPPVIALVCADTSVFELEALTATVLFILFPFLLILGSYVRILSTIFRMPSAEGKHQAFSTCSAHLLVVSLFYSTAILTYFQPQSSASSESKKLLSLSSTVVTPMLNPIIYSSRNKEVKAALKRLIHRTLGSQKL
In short: as §1

O10A5 = test system: T6, O10A5
T6 sequence (whole entry): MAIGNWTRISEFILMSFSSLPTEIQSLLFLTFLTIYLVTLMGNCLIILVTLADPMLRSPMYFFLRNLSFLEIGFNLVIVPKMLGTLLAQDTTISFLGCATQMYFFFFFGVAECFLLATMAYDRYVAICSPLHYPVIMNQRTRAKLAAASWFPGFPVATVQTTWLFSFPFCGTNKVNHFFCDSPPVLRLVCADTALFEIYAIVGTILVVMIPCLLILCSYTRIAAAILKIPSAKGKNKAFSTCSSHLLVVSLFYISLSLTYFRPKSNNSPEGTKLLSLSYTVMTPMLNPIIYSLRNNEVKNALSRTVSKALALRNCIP
In short: as §1

O10AD = test system: T7, O10AD
T7 sequence (whole entry): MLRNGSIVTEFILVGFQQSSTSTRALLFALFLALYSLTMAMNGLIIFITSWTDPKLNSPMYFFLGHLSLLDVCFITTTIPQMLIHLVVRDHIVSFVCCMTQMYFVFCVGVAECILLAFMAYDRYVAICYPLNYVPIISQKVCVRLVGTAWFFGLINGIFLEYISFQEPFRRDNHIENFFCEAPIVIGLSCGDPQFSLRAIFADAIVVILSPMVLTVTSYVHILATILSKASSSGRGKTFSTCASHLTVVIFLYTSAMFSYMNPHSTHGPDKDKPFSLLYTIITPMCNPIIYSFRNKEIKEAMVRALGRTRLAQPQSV
In short: as §1

O10C1 = test system: T8, O10C1
T8 sequence (whole entry): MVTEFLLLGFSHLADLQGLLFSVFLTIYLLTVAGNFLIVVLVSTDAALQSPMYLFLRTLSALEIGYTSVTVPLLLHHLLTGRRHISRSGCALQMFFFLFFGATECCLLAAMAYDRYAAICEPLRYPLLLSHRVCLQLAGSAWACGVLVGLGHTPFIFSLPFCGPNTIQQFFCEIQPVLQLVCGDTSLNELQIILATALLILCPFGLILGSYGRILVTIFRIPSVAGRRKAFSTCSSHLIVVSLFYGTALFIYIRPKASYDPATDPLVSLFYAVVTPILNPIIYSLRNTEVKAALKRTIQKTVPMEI
In short: as §1

O10D3 = test system: T9, O10D3
T9 sequence (whole entry): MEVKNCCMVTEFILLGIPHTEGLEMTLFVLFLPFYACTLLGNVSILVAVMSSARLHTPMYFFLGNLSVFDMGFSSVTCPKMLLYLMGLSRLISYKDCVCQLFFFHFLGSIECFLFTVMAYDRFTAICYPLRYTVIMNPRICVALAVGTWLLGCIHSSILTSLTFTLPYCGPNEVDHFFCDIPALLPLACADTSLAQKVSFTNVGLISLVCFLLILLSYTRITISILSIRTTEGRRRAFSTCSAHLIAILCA
In short: as §1

A0A140T8K0 = test system: A0A140T8K0
In short: as §1

Measured: odorant receptor agonist call

CS
not listed: A0A140T8K0
inactive: all other assays above

CCCCOC(C)=O
not listed: A0A140T8K0
inactive: all other assays above

CCC(C)=O
inactive: all assays above

CCOc1cc(C=O)ccc1O
inactive: A0A140T8K0
